These are yes or no findings as the source states them, for the method shown. Some binding calls cover weakened binding; strength is not graded here. For part of these data: Where a sequence is shown, tags or fusion partners need not be part of it.
Tests used:
MBP/G1′-19′ (E. coli) [1] = target: T1, MBP/G1′-19′ (E. coli); experiment: ELISA, fusion protein coated on wells, 50 pmol PapD, anti-PapD antiserum
T1 sequence: GKRKPGELSGSMTMVLSFP

The chains behind the UniProt entries cited, without tags or fusion partners. Residues count along the entry.
UniProt P15319, residues 22-239: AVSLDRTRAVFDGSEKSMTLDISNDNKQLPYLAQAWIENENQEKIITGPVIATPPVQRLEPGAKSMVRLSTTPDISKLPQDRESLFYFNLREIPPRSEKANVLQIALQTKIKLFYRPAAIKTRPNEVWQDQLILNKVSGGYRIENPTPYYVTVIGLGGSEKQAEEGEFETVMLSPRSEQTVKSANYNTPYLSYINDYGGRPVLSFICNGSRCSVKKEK

MBP/G1′-19′ (E. coli) [2] = target: T1, MBP/G1′-19′ (E. coli); experiment: co-expression, amylose affinity chromatography, anti-PapD western blot
PapG (E. coli) = target: T2, PapG (E. coli) (UniProt P13720); experiment: protease protection
T2 sequence: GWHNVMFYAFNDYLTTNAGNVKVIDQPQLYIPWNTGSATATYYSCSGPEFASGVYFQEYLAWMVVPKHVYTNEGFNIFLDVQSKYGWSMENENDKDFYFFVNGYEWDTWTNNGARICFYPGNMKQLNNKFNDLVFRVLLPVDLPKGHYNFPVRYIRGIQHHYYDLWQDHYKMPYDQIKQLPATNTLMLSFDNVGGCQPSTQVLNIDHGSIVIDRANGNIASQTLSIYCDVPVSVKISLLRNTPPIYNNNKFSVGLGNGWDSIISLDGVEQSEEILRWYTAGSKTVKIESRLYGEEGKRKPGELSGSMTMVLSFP

Measured: binding

PapD (wild type) (from UniProt P15319 22-239)
binds: all assays above
